This sample is rich in variants without activity.
Experiments:
biotinyl-Trp-oxazolone = test: self-aminoacylation, catalytic enhancement (BWO) (fold over background); higher = more active; k-Seq, kA / k0A0; sequences stand for … in GGGAAUGGAUCCACAUCUACGAAUUC…UUCACUGCAGACUUGACGAAGCUG
Procedure, shortened: (§1)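 Working in 50 μL HEPES/NaCl/KCl/MgCl2/CaCl2 buffer with 5% acetonitrile at pH 6.9–7.0, mutagenized RNA pools (0.43 μM; 21-nt variable region) were reacted with 2–1250 μM of each biotinyl-aminoacyl-oxazolone for 90 minutes at room temperature. Streptavidin capture followed, with quantification by triplicate qPCR and Illumina sequencing. Catalytic enhancement is reported as median kA over the uncatalyzed rate, the low-activity peak of a bimodal Gaussian fit to the data.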

biotinyl-Leu-oxazolone = test: self-aminoacylation, catalytic enhancement (BLO) (fold over background); higher = more active; k-Seq, kA / k0A0; sequences stand for … in GGGAAUGGAUCCACAUCUACGAAUUC…UUCACUGCAGACUUGACGAAGCUG
Procedure, shortened: as §1

biotinyl-Val-oxazolone = test: self-aminoacylation, catalytic enhancement (BVO) (fold over background); higher = more active; k-Seq, kA / k0A0; sequences stand for … in GGGAAUGGAUCCACAUCUACGAAUUC…UUCACUGCAGACUUGACGAAGCUG
Procedure, shortened: as §1

biotinyl-Ile-oxazolone = test: self-aminoacylation, catalytic enhancement (BIO) (fold over background); higher = more active; k-Seq, kA / k0A0; sequences stand for … in GGGAAUGGAUCCACAUCUACGAAUUC…UUCACUGCAGACUUGACGAAGCUG
Procedure, shortened: as §1

biotinyl-Met-oxazolone = test: self-aminoacylation, catalytic enhancement (BMO) (fold over background); higher = more active; k-Seq, kA / k0A0; sequences stand for … in GGGAAUGGAUCCACAUCUACGAAUUC…UUCACUGCAGACUUGACGAAGCUG
Procedure, shortened: as §1

biotinyl-Phe-oxazolone = test: self-aminoacylation, catalytic enhancement (BFO) (fold over background); higher = more active; k-Seq, kA / k0A0; sequences stand for … in GGGAAUGGAUCCACAUCUACGAAUUC…UUCACUGCAGACUUGACGAAGCUG
Procedure, shortened: as §1

| Sequence | self-aminoacylation (biotinyl-Trp-oxazolone) | self-aminoacylation (biotinyl-Leu-oxazolone) | self-aminoacylation (biotinyl-Val-oxazolone) | self-aminoacylation (biotinyl-Ile-oxazolone) | self-aminoacylation (biotinyl-Met-oxazolone) | self-aminoacylation (biotinyl-Phe-oxazolone) |
| --- | --- | --- | --- | --- | --- | --- |
| AAGUUUCCUAAUAGUCGCAAC [Fam3.1 aminoacylation ribozyme variant] | 2.18 | 1.5 | 1.31 | 1.59 | 1.73 | 2.42 |
| AAGUUUGAUAAUAGUCGCAAG [Fam3.1 aminoacylation ribozyme variant] | 1.03 | 0.915 | 0.952 | 1.04 | 0.929 | 1.75 |
| AAGUUUGAUAAUAGUCGCAUG [Fam3.1 aminoacylation ribozyme variant] | 0.69 | 0.836 | 0.774 | 0.996 | 0.778 | 1.19 |
| AAGUUUGAUAAUAGUCGCUAG [Fam3.1 aminoacylation ribozyme variant] | 0.625 | 0.464 | 0.529 | 0.553 | 0.477 | 0.654 |
| AAGUUUGAUAAUUGUCGCAAG [Fam3.1 aminoacylation ribozyme variant] | 0.973 | 1.27 | 1.13 | 1.35 | 1.14 | 1.5 |
| AAGUUUGCAAAUAAUCGCAAG [Fam3.1 aminoacylation ribozyme variant] | 0.429 | 0.686 | 0.655 | 0.778 | 0.739 | 0.61 |
| AAGUUUGCAAAUAGUGGCAAG [Fam3.1 aminoacylation ribozyme variant] | 0.861 | 0.964 | 0.624 | 0.944 | 0.825 | 1.2 |
| AAGUUUGCAAAUAGUUGCAAG [Fam3.1 aminoacylation ribozyme variant] | 0.634 | 1.12 | 0.982 | 1.17 | 0.926 | 0.979 |
| AAGUUUGCAAAUGGUCGCAAG [Fam3.1 aminoacylation ribozyme variant] | 0.969 | 0.823 | 0.863 | 0.697 | 0.747 | 1.75 |
| AAGUUUGCCAAUAGUCGCGAG [Fam3.1 aminoacylation ribozyme variant] | 3.77 | 2.25 | 2.09 | 1.61 | 1.96 | 11.6 |
| AAGUUUGCCAAUAGUCUCAAG [Fam3.1 aminoacylation ribozyme variant] | 1.17 | 0.926 | 0.906 | 0.98 | 1.25 | 1.32 |
| AAGUUUGCCAAUCGUCGCAAG [Fam3.1 aminoacylation ribozyme variant] | 1.12 | 1.26 | 1.29 | 1.36 | 1.7 | 0.9 |
| AAGUUUGCCCAUAGUCGCAAG [Fam3.1 aminoacylation ribozyme variant] | 1.15 | 0.863 | 0.947 | 0.928 | 0.864 | 0.937 |
| AAGUUUGCGAAUAGUAGCAAG [Fam3.1 aminoacylation ribozyme variant] | 0.739 | 0.832 | 0.849 | 1.08 | 0.774 | 0.534 |
| AAGUUUGCUAAAAUUCGCAAG [Fam3.1 aminoacylation ribozyme variant] | 1.42 | 1.21 | 1.25 | 1.55 | 1.05 | 1.17 |
| AAGUUUGCUAACAGUAGCAAG [Fam3.1 aminoacylation ribozyme variant] | 0.858 | 0.782 | 0.699 | 0.886 | 0.717 | 1.05 |
| AAGUUUGCUAACAGUCCCAAG [Fam3.1 aminoacylation ribozyme variant] | 1.85 | 0.801 | 0.81 | 1.13 | 1.06 | 1.94 |
| AAGUUUGCUAACAGUUGCAAG [Fam3.1 aminoacylation ribozyme variant] | 0.988 | 0.84 | 0.642 | 0.733 | 0.943 | 1.24 |
| AAGUUUGCUAACGGUCGCAAG [Fam3.1 aminoacylation ribozyme variant] | 0.658 | 0.626 | 0.645 | 0.768 | 1.1 | 1.35 |
| AAGUUUGCUAAGCGUCGCAAG [Fam3.1 aminoacylation ribozyme variant] | 1.02 | 0.76 | 0.913 | 0.902 | 0.744 | 1.03 |
| AAGUUUGCUAAUAAACGCAAG [Fam3.1 aminoacylation ribozyme variant] | 0.97 | 0.687 | 0.667 | 0.774 | 0.833 | 1.12 |
| AAGUUUGCUAAUAAUCGCACG [Fam3.1 aminoacylation ribozyme variant] | 0.627 | 0.47 | 0.725 | 0.695 | 0.615 | 0.641 |
| AAGUUUGCUAAUACUCCCAAG [Fam3.1 aminoacylation ribozyme variant] | 0.294 | 0.317 | 0.484 | 0.449 | 0.444 | 0.694 |
| AAGUUUGCUAAUACUCGCAAC [Fam3.1 aminoacylation ribozyme variant] | 0.906 | 0.635 | 0.962 | 0.86 | 0.865 | 1.11 |
| AAGUUUGCUAAUAGCCGCAAA [Fam3.1 aminoacylation ribozyme variant] | 1.3 | 1.38 | 1.58 | 1.92 | 1.86 | 1.38 |
| AAGUUUGCUAAUAGCCGCUAG [Fam3.1 aminoacylation ribozyme variant] | 1.15 | 0.961 | 0.933 | 0.994 | 1.05 | 0.731 |
